Measured values published in patent publication US4537924A, “Quadratic acid amide derivatives, their use as stabilizers, and synthetic resins treated therewith” (Chemische Werke Huels, AG, priority 1982, dated 1985).

Key:
[1] = Light exposure test with stabilizers in polyether esters, change in viscosity (J value); settings: 0.5% by wt. stabilizer in polyether ester
[2] = Stabilizing effect with polystyrene, yellowness index after irradiation; settings: 0.11% by wt. stabilizer

Compound	Decrease in J-value ([1]; after 20 days) [%]	Decrease in J-value ([1]; after 40 days) [%]	Yellowness index after irradiation period ([2]; 750 hrs., 0-7.5 very low, 10-20 medium-strong, above 20 strong yellowing)	Yellowness index after irradiation period ([2]; 1230 hrs., without stabilizer 22.1)
CC1(C)CC(OC(=O)CCCCCCCCC(=O)OC2CC(C)(C)NC(C)(C)C2)CC(C)(C)N1 [Comparative Example A, sebacic acid di-4-hydroxy-2,2,6,6-tetramethylpiperidine ester]	5	8		
CC(C)(C)c1ccc(OC(=O)c2cc(C(C)(C)C)c(O)c(C(C)(C)C)c2)c(C(C)(C)C)c1 [H]			12.9	18.9
